In the supplement of paper PMC7661543:
± gives the standard deviation of the averaged measurements. The effect of the compound repeats well; differences between the knockouts mostly do not.

Test system: HCC-38
Assay: relative cell number vs DMSO control (72 h) (% of DMSO); higher = less growth inhibition (more cells)
Experimental: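 QMAP-Seq: a pool of 5 breast cancer cell lines (ZR-75-1, SKBR3, HCC-38, MDA-MB-231, BT-20), each carrying 12 doxycycline-inducible Cas9 sgRNA perturbations (11 knockouts plus non-targeting sgNT), was treated with compounds for 72 h at four 10-fold doses (10 nM-10 uM or 1 nM-1 uM range). Barcodes were amplified and sequenced, and cell number was interpolated from 293T spike-in standard curves. The result is expressed as % of the median of DMSO wells. Two biological replicates.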

O=P1(NCCCl)OCCCN1CCCl (configuration not stated) [Ifosfamide]
Conditions	relative cell number
sgRNA knockout: sgATF3, 10 nM	112.3 ± 0.95
sgRNA knockout: sgATF3, 100 nM	98.7 ± 23
sgRNA knockout: sgATF3, 1000 nM	123 ± 13
sgRNA knockout: sgATF3, 10000 nM	95.1 ± 33
sgRNA knockout: sgATF4, 10 nM	113 ± 7.2
sgRNA knockout: sgATF4, 100 nM	103 ± 28
sgRNA knockout: sgATF4, 1000 nM	118 ± 20
sgRNA knockout: sgATF4, 10000 nM	95.6 ± 19
sgRNA knockout: sgATF6, 10 nM	91.4 ± 18
sgRNA knockout: sgATF6, 100 nM	93.2 ± 8.9
sgRNA knockout: sgATF6, 1000 nM	112 ± 5
sgRNA knockout: sgATF6, 10000 nM	106 ± 14
sgRNA knockout: sgATG7, 10 nM	118 ± 2.1
sgRNA knockout: sgATG7, 100 nM	91 ± 8.9
sgRNA knockout: sgATG7, 1000 nM	107 ± 15
sgRNA knockout: sgATG7, 10000 nM	87.8 ± 12
sgRNA knockout: sgERN1, 10 nM	104 ± 1.4
sgRNA knockout: sgERN1, 100 nM	96.7 ± 21
sgRNA knockout: sgERN1, 1000 nM	113 ± 10
sgRNA knockout: sgERN1, 10000 nM	106 ± 31
sgRNA knockout: sgHSF1, 10 nM	105 ± 40
sgRNA knockout: sgHSF1, 100 nM	88.6 ± 17
sgRNA knockout: sgHSF1, 1000 nM	92.8 ± 9.8
sgRNA knockout: sgHSF1, 10000 nM	108.8 ± 0.15
sgRNA knockout: sgHSF2, 10 nM	102 ± 15
sgRNA knockout: sgHSF2, 100 nM	99.8 ± 17
sgRNA knockout: sgHSF2, 1000 nM	120 ± 28
sgRNA knockout: sgHSF2, 10000 nM	92.3 ± 17
sgRNA knockout: sgKEAP1, 10 nM	89.2 ± 23
sgRNA knockout: sgKEAP1, 100 nM	122 ± 19
sgRNA knockout: sgKEAP1, 1000 nM	95 ± 2
sgRNA knockout: sgKEAP1, 10000 nM	106 ± 9.8
sgRNA knockout: sgNFE2L2, 10 nM	111 ± 1.4
sgRNA knockout: sgNFE2L2, 100 nM	92.7 ± 23
sgRNA knockout: sgNFE2L2, 1000 nM	116 ± 15
sgRNA knockout: sgNFE2L2, 10000 nM	91 ± 17
sgRNA knockout: sgSLC35F2, 10 nM	111 ± 4.1
sgRNA knockout: sgSLC35F2, 100 nM	93.5 ± 12
sgRNA knockout: sgSLC35F2, 1000 nM	115 ± 14
sgRNA knockout: sgSLC35F2, 10000 nM	100 ± 23
sgRNA knockout: sgXBP1, 10 nM	108 ± 2.7
sgRNA knockout: sgXBP1, 100 nM	91.6 ± 24
sgRNA knockout: sgXBP1, 1000 nM	106 ± 12
sgRNA knockout: sgXBP1, 10000 nM	89.4 ± 16

CCn1c(=O)c2c(nc(/C=C/c3ccc(OC)c(OC)c3)n2C)n(CC)c1=O [Istradefylline]
Conditions	relative cell number
sgRNA knockout: sgATF3, 10 nM	89 ± 1.9
sgRNA knockout: sgATF3, 100 nM	90.8 ± 16
sgRNA knockout: sgATF3, 1000 nM	94.8 ± 7.7
sgRNA knockout: sgATF3, 10000 nM	100.6 ± 1
sgRNA knockout: sgATF4, 10 nM	82.67 ± 0.82
sgRNA knockout: sgATF4, 100 nM	97.2 ± 11
sgRNA knockout: sgATF4, 1000 nM	93.3 ± 5.6
sgRNA knockout: sgATF4, 10000 nM	99.6 ± 1.1
sgRNA knockout: sgATF6, 10 nM	89.3 ± 17
sgRNA knockout: sgATF6, 100 nM	109 ± 11
sgRNA knockout: sgATF6, 1000 nM	105 ± 4.3
sgRNA knockout: sgATF6, 10000 nM	99.2 ± 5.5
sgRNA knockout: sgATG7, 10 nM	83.8 ± 1.2
sgRNA knockout: sgATG7, 100 nM	96.4 ± 13
sgRNA knockout: sgATG7, 1000 nM	87.4 ± 20
sgRNA knockout: sgATG7, 10000 nM	98.6 ± 1.7
sgRNA knockout: sgERN1, 10 nM	83.1 ± 6.5
sgRNA knockout: sgERN1, 100 nM	98.8 ± 5.6
sgRNA knockout: sgERN1, 1000 nM	98.78 ± 0.81
sgRNA knockout: sgERN1, 10000 nM	97.4 ± 4.5
sgRNA knockout: sgHSF1, 10 nM	86.9 ± 7.2
sgRNA knockout: sgHSF1, 100 nM	101 ± 24
sgRNA knockout: sgHSF1, 1000 nM	111 ± 29
sgRNA knockout: sgHSF1, 10000 nM	115 ± 2.7
sgRNA knockout: sgHSF2, 10 nM	85.1 ± 1.8
sgRNA knockout: sgHSF2, 100 nM	102 ± 6.5
sgRNA knockout: sgHSF2, 1000 nM	100 ± 4
sgRNA knockout: sgHSF2, 10000 nM	99.7 ± 7.4
sgRNA knockout: sgKEAP1, 10 nM	85.8 ± 13
sgRNA knockout: sgKEAP1, 100 nM	91.5 ± 21
sgRNA knockout: sgKEAP1, 1000 nM	97.6 ± 22
sgRNA knockout: sgKEAP1, 10000 nM	114 ± 9.3
sgRNA knockout: sgNFE2L2, 10 nM	89.7 ± 1.4
sgRNA knockout: sgNFE2L2, 100 nM	94.8 ± 15
sgRNA knockout: sgNFE2L2, 1000 nM	87.2 ± 13
sgRNA knockout: sgNFE2L2, 10000 nM	93.7 ± 3.7
sgRNA knockout: sgSLC35F2, 10 nM	85.5 ± 2.6
sgRNA knockout: sgSLC35F2, 100 nM	94.6 ± 1.6
sgRNA knockout: sgSLC35F2, 1000 nM	88.1 ± 8.2
sgRNA knockout: sgSLC35F2, 10000 nM	109 ± 8.5
sgRNA knockout: sgXBP1, 10 nM	87.4 ± 3.1
sgRNA knockout: sgXBP1, 100 nM	92.5 ± 17
sgRNA knockout: sgXBP1, 1000 nM	87.5 ± 3.8
sgRNA knockout: sgXBP1, 10000 nM	103 ± 10

Nc1nc(OCc2cc(Br)cs2)c2[nH]cnc2n1 [Lomeguatrib]
Conditions	relative cell number
sgRNA knockout: sgATF3, 10 nM	103 ± 2
sgRNA knockout: sgATF3, 100 nM	87.1 ± 11
sgRNA knockout: sgATF3, 1000 nM	92.17 ± 0.83
sgRNA knockout: sgATF3, 10000 nM	86.5 ± 3.8
sgRNA knockout: sgATF4, 10 nM	100.1 ± 0.31
sgRNA knockout: sgATF4, 100 nM	83.6 ± 5.5
sgRNA knockout: sgATF4, 1000 nM	84.1 ± 8.9
sgRNA knockout: sgATF4, 10000 nM	84.8 ± 9.5
sgRNA knockout: sgATF6, 10 nM	106 ± 14
sgRNA knockout: sgATF6, 100 nM	104 ± 4.5
sgRNA knockout: sgATF6, 1000 nM	92.4 ± 5
sgRNA knockout: sgATF6, 10000 nM	76.7 ± 13
sgRNA knockout: sgATG7, 10 nM	95.2 ± 4.4
sgRNA knockout: sgATG7, 100 nM	83.5 ± 3
sgRNA knockout: sgATG7, 1000 nM	80.7 ± 10
sgRNA knockout: sgATG7, 10000 nM	92.6 ± 13
sgRNA knockout: sgERN1, 10 nM	105 ± 1.4
sgRNA knockout: sgERN1, 100 nM	91.5 ± 13
sgRNA knockout: sgERN1, 1000 nM	88.6 ± 12
sgRNA knockout: sgERN1, 10000 nM	90.7 ± 15
sgRNA knockout: sgHSF1, 10 nM	114 ± 16
sgRNA knockout: sgHSF1, 100 nM	101 ± 11
sgRNA knockout: sgHSF1, 1000 nM	108 ± 23
sgRNA knockout: sgHSF1, 10000 nM	81.5 ± 15
sgRNA knockout: sgHSF2, 10 nM	105.04 ± 0.06
sgRNA knockout: sgHSF2, 100 nM	94.9 ± 2
sgRNA knockout: sgHSF2, 1000 nM	89.4 ± 12
sgRNA knockout: sgHSF2, 10000 nM	81.3 ± 1.6
sgRNA knockout: sgKEAP1, 10 nM	98.8 ± 12
sgRNA knockout: sgKEAP1, 100 nM	103 ± 1.8
sgRNA knockout: sgKEAP1, 1000 nM	91.1 ± 13
sgRNA knockout: sgKEAP1, 10000 nM	82.3 ± 14
sgRNA knockout: sgNFE2L2, 10 nM	98.4 ± 5.9
sgRNA knockout: sgNFE2L2, 100 nM	80.6 ± 5.9
sgRNA knockout: sgNFE2L2, 1000 nM	79.5 ± 13
sgRNA knockout: sgNFE2L2, 10000 nM	92.6 ± 23
sgRNA knockout: sgSLC35F2, 10 nM	97.5 ± 1.9
sgRNA knockout: sgSLC35F2, 100 nM	97.3 ± 9.7
sgRNA knockout: sgSLC35F2, 1000 nM	90.3 ± 6.9
sgRNA knockout: sgSLC35F2, 10000 nM	75.1 ± 2
sgRNA knockout: sgXBP1, 10 nM	99.6 ± 7
sgRNA knockout: sgXBP1, 100 nM	84.8 ± 8.3
sgRNA knockout: sgXBP1, 1000 nM	88.9 ± 10
sgRNA knockout: sgXBP1, 10000 nM	86 ± 12
